These are yes or no findings as the source states them, for the method shown. Some entries that bind do so weakly or less than the wild type.
Biological target: FAK of NIH3T3 cells (mouse) (UniProt P34152)
Assay: paxillin/FAK complex in NIH3T3 cells overexpressing FAK/25aa; no figure cited

The chains behind the UniProt entries cited, without tags or fusion partners. Residues count along the entry.
UniProt P34152, residues 2-1052: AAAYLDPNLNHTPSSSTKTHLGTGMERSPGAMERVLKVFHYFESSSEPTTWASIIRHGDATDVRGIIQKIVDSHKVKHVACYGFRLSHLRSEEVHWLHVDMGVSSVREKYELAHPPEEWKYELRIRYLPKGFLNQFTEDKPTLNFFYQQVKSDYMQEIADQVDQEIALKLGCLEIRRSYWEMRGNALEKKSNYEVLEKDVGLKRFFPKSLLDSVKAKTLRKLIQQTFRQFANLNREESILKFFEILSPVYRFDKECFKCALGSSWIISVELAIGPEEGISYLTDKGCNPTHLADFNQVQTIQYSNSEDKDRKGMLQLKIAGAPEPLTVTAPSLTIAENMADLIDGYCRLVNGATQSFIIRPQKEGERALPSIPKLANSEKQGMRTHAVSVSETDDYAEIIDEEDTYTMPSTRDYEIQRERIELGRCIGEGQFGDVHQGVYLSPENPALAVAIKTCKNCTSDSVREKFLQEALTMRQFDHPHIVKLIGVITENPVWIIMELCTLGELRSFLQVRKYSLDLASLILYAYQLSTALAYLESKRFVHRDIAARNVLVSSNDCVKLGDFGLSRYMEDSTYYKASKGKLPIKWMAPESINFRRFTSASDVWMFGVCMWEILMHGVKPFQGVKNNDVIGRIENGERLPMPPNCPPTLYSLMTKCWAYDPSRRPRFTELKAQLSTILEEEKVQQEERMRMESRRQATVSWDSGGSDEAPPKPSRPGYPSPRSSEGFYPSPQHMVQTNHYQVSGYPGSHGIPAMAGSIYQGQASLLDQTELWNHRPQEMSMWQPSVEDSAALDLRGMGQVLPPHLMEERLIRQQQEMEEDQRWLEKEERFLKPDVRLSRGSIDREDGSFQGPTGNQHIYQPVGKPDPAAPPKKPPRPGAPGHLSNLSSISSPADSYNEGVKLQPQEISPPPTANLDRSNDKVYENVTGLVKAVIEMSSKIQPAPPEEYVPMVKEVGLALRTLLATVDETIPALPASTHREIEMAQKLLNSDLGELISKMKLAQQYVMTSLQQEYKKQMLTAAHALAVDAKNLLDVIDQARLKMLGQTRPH
UniProt Q8VI36: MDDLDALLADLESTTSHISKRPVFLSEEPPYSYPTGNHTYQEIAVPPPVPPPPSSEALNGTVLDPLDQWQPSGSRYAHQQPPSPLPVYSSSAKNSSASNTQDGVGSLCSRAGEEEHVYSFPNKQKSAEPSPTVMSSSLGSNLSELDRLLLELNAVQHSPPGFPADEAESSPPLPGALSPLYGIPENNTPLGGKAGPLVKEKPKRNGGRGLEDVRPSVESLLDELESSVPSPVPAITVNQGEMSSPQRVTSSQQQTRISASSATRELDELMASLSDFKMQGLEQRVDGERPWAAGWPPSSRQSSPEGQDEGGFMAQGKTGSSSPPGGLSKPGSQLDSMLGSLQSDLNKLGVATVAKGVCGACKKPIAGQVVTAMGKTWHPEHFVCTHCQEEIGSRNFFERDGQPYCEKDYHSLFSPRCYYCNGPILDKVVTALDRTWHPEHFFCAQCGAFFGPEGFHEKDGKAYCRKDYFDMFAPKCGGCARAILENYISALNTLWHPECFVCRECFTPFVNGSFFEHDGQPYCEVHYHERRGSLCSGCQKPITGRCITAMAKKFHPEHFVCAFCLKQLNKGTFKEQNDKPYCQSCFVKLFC

binding: binds
Substance: paxillin (from UniProt Q8VI36 1-591)

— patent publication US20180177845A1, “METHOD FOR TREATMENT OR PREVENTION OF A CANCER” (priority 2016, published 2018)
